{"source": "patent US12486514B2", "about": "“Method to specifically stimulate survival and expansion of genetically-modified immune cells” (National University of Singapore, priority 2018, dated 2025)", "key": {"STAT5 Y647": {"test_system": "STAT5 Y647", "assay": "Epo signaling: STAT5 phosphorylation by flow cytometry in transduced T cells", "format": "cell-based, human", "details": "EpoRm-CAR T cells; IL-2 100 IU/mL", "protocol": "To detect Epo signaling, cells were incubated in cytokine-free media for 2 hours before stimulated with Epo (0.01-10 IU/mL) at 37° C. for 15 minutes to 24 hours. In some experiments, cells were treated with 0.1-10 μM of ruxolitinib (Selleckchem) or 0.5-5 nM tofacitinib (Santa Cruz Biotechnology, Santa Cruz, CA) for 1 hour prior to Epo stimulation. […] In some experiments, the effects of human Epo were compared to those of murine Epo (Biolegend, San Diego, CA)."}, "[1]": {"test_system": "T lymphocytes co-cultured with OP-1 cells", "assay": "T cell proliferation in co-culture with Streck-treated or irradiated OP-1 cells", "format": "cell-based, human", "details": "1 μM, Epo 10 IU/mL, 7 days"}}, "note": "At least one compound was matched to its structure with a doubt left.", "data": [{"smiles": "N#CC[C@H](C1CCCC1)n1cc(-c2ncnc3[nH]ccc23)cn1", "note": "[ruxolitinib]", "values": [{"measurement": "STAT5 Y647 phosphorylation caused by IL-2 after JAK inhibitor", "setting": "STAT5 Y647", "value": "completely abrogated"}, {"measurement": "EpoRm-CAR T cell proliferation with JAK inhibitor", "setting": "[1]", "value": "abrogated"}]}]}
